Laboratory results: patent US6022497A, “Photochromic six-membered heterocyclic-fused naphthopyrans” (PPG Industries Ohio, Inc., priority 1999, dated 2000)
At least one structure is not confirmed: it was looked up by name or label, or the drawing left a doubt.

Experiments:
[1] = lambda max (Vis) of photochromic test square polymerizates, UV-Visible spectrophotometer; type: physicochemical; details: activated (colored) form in polymer test square (BPA 2EO DMA / poly(ethylene glycol) 600 dimethacrylate), 1.5×10^-3 molal
Protocol: Testing was done with the photochromic compounds prepared in Examples 1-14 in the following manner. A quantity of each photochromic compound, except Compounds 13A and 14, calculated to yield a 1.5×10^-3 molal solution was added to a flask containing 50 grams of a monomer blend of 4 parts ethoxylated bisphenol A dimethacrylate (BPA 2EO DMA), 1 part poly(ethylene glycol) 600 dimethacrylate, and 0.033 weight percent 2,2'-azobis(2-methyl propionitrile) (AIBN). Each photochromic compound was dissolved into the monomer blend by stirring and gentle heating. After a clear solution was obtained, it was poured into a flat sheet mold having the interior dimensions of 2.2 mm×6 inches (15.24 cm)×6 inches (15.24 cm). […]
The ΔOD/min, which represents the sensitivity of the photochromic compound's response to UV light, was measured over the first five (5) seconds of UV exposure, then expressed on a per minute basis. […] The lambda max (Vis) wavelength was determined by testing the photochromic test square polymerizates of Part A in a Varian Cary 3 UV-Visible spectrophotometer. The Bleach Rate (T 1/2) is the time interval in seconds for the absorbance of the activated form of the photochromic compound in the test squares to reach one half the highest absorbance at room temperature (72° F., 22.2° C.) after removal of the source of activating light.

[2] = photochromic response of test squares on an optical bench (sensitivity, saturation, bleach rate); type: physicochemical
Protocol: Testing was done with the photochromic compounds prepared in Examples 1-14 in the following manner. A quantity of each photochromic compound, except Compounds 13A and 14, calculated to yield a 1.5×10^-3 molal solution was added to a flask containing 50 grams of a monomer blend of 4 parts ethoxylated bisphenol A dimethacrylate (BPA 2EO DMA), 1 part poly(ethylene glycol) 600 dimethacrylate, and 0.033 weight percent 2,2'-azobis(2-methyl propionitrile) (AIBN). Each photochromic compound was dissolved into the monomer blend by stirring and gentle heating. After a clear solution was obtained, it was poured into a flat sheet mold having the interior dimensions of 2.2 mm×6 inches (15.24 cm)×6 inches (15.24 cm). The mold was sealed and placed in a horizontal air flow, programmable oven programmed to increase the temperature from 40° C. to 95° C. over a 5 hour interval, hold the temperature at 95° C. for 3 hours, lower it to 60° C. over a 2 hour interval and then hold at 60° C. for 16 hours. After the mold was opened, the polymer sheet was cut using a diamond blade saw into 2 inch (5.1 centimeters) test squares.
The photochromic test squares prepared in Part A were tested for photochromic response on an optical bench. […] The UV-A detector was placed into the sample holder and the light output was measured. […]
A monitoring, collimated beam of light from a tungsten lamp was passed through the square at a small angle (approximately 30°) normal to the square. After passing through the square, the light from the tungsten lamp was directed to a detector through Spectral Energy Corp. GM-200 monochromator set at the previously determined visible lambda max of the photochromic compound being measured. […]
The ΔOD/min, which represents the sensitivity of the photochromic compound's response to UV light, was measured over the first five (5) seconds of UV exposure, then expressed on a per minute basis. […]

SMILES: O=C1NC(c2ccccc2)(c2ccccc2)Nc2c1c1c(c3ccccc23)OC(c2ccccc2)(c2ccccc2)C=C1 [Example 13, 2,2,7,7-tetraphenyl-4-oxo-2,3,4,7-tetrahydro-1H-pyrimidino[5',4':3,4]naphtho[1,2-b]pyran]
- lambda max (Vis) [1]: 512 nanometers
- ΔOD @ Saturation ([2]; UV exposure continued for 15 minutes, 72° F. (22.2° C.)): 2.45
- Sensitivity ΔOD/min ([2]; first five (5) seconds of UV exposure, expressed per minute, 72° F. (22.2° C.)): 0.62 ΔOD/min
- Bleach Rate T 1/2 ([2]; time to one half the highest absorbance at room temperature (72° F., 22.2° C.) after removal of activating light): 8.88 min
